Measured values taken from PubChem BioAssay AID504834 (National Center for Advancing Translational Sciences (NCATS), 2011).
About 22,000 (6.9%) of roughly 320,000 compounds were called active. This list was built around the results that the source calls inconclusive (neither active nor inactive); the mix of calls is not that of the screen. Calls come from the whole dose curve; as a rule, active = well fitted inhibition curve with a large enough effect; inconclusive = small, poorly fitted or top-dose-only effect, or another doubt; inactive = no such curve, though single readings can be large or run the other way. Potencies of inconclusive entries are doubtful fits and often do not repeat.

Assay: Primary qHTS for delayed death inhibitors of the malarial parasite plastid, 96 hour incubation
Conditions: P. falciparum luciferase reporter growth; series mostly up to 28.7 µM
In short: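 Infected RBCs, 2% Hct / 0.05% parasitemia final; luciferase-reporter P. falciparum; cpd 96 h, 37 C, 5% CO2; luciferase detection reagent; luminescence.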
Potency is the fitted concentration of half-maximal effect.

Question: With `Cc1cc(OCC(=O)Nc2ccc(CN3CCOCC3)cc2)c2c(C)c(C)c(=O)oc2c1` as the compound, how does the Potency read?
Answer: The Potency was inconclusive: 18.5 µM [inhibitor, single point].

Question: Which Potency does the source give for `CC(NCC(=O)NC(=O)NC1CCCC1)c1ccc(Cl)cc1Cl` (stereo not drawn) here?
Answer: Its Potency is inconclusive: 11.7 µM [inhibitor, partial curve, poor fit].

Question: For `Cc1ccc(NC(=O)Cc2c(Cl)cccc2Cl)cc1S(=O)(=O)N(C)C`, which Potency is on record?
Answer: Its Potency is inconclusive: 10.4 µM [inhibitor, single point].

Question: For `CCOC(=O)NC(=S)Nc1c(C)n(C)n(-c2ccccc2)c1=O`, which Potency is on record?
Answer: The Potency was “inactive”.

Question: Which Potency does the source give for `COc1ccc(C(C(=O)NCC2CCCO2)N(C(=O)Cn2nnc3ccccc32)c2ccccc2C(C)=O)cc1OC` (stereo not drawn) here?
Answer: The Potency was inconclusive: 14.7 µM [inhibitor, partial curve, poor fit].

Question: Which Potency does the source give for `O=C(CSc1nnc(CNC(=O)c2ccco2)o1)Nc1ccc(Cl)cc1` here?
Answer: The Potency was active: 10.4 µM.

Question: For `O=C(c1cc(C2CC2)on1)N1CCN(c2ccc(F)cc2)CC1`, which Potency is on record?
Answer: Its Potency is “inactive”.

Question: Which Potency does the source give for `N/C(Cn1nnc(-c2ccccc2)n1)=N\O` here?
Answer: The Potency was inconclusive: 18.5 µM [inhibitor, single point].

Question: With `CCN(CC)S(=O)(=O)c1ccc2oc(C(=O)N3CCOCC3)c(C)c2c1` as the compound, how does the Potency read?
Answer: The Potency was inconclusive: 10.4 µM [inhibitor, partial curve, poor fit].

Question: With `Cn1cccc1CNC(=S)Nc1ccccc1F` as the compound, how does the Potency read?
Answer: Its Potency is “inactive”.

Question: For `COc1ccc(CN(C)S(=O)(=O)c2ccc3c(c2)OCCO3)cc1`, which Potency is on record?
Answer: The Potency was “inactive”.

Question: With `COC(=O)CCCC1=CC2=C(c3ccccc3)C(=O)C(C)(OC(=O)C3CCCC3)C(=O)C2=CN1CC1CC1` (stereo not drawn) as the compound, how does the Potency read?
Answer: Its Potency is active: 8.28 µM.

Question: Which Potency does the source give for `COCCN(CCOC)C(=O)c1ccc(SCc2ccc(C)cc2)c([N+](=O)[O-])c1` here?
Answer: The Potency was inconclusive: 18.5 µM [inhibitor, partial curve, poor fit].

Question: Which Potency does the source give for `O=C(c1cc(COc2ccc(F)cc2F)on1)N1CC2C[C@@H]3CC1C[C@H](C2)C3` here?
Answer: Its Potency is inconclusive: 1.47 µM [inhibitor, full curve].

Question: Which Potency does the source give for `O=C(NC1=NCCS1)c1cc2ccccc2o1` here?
Answer: Its Potency is “inactive”.

Question: With `NS(=O)(=O)c1ccc(CCNC(=O)Cc2ccc(S(=O)(=O)N3CCCC3)s2)cc1` as the compound, how does the Potency read?
Answer: Its Potency is “inactive”.

Question: With `N#Cc1ccc(CN2CCN(CC(=O)Nc3ccccc3C(=O)NC3CC3)CC2)cc1` as the compound, how does the Potency read?
Answer: Its Potency is inconclusive: 16.5 µM [inhibitor, single point].

Question: For `O=S(=O)(c1ccc(NCCc2c[nH]c3ccccc23)nc1)N1CCOCC1`, which Potency is on record?
Answer: The Potency was inconclusive: 10.4 µM [inhibitor, single point].

Question: With `CCCC(O)(CCC)C(=O)NN(C(=O)CCl)c1ccccc1` as the compound, how does the Potency read?
Answer: Its Potency is “inactive”.

Question: Which Potency does the source give for `O=C(Nc1ccc(Cl)c(Cl)c1)c1cccnc1` here?
Answer: The Potency was inconclusive: 18.5 µM [inhibitor, single point].

Question: With `CCOC(=O)CNC(=O)CSc1ncnc2c1nnn2-c1ccc(F)cc1` as the compound, how does the Potency read?
Answer: Its Potency is inconclusive: 8.28 µM [inhibitor, partial curve, poor fit].

Question: For `Cc1cc(C)n(-c2nc(NCC(C)O)c3c4c(sc3n2)COC(C)(C)C4)n1` (stereo not drawn), which Potency is on record?
Answer: The Potency was inconclusive: 5.86 µM [inhibitor, partial curve, poor fit].

Question: Which Potency does the source give for `O=C1NNC(c2ccccc2)=N/C1=C\c1ccco1` here?
Answer: Its Potency is “inactive”.

Question: Which Potency does the source give for `CCn1ncc(N2CCOCC2)c(Cl)c1=O` here?
Answer: The Potency was “inactive”.

Question: With `COc1ccccc1NC(=O)C1=C(C)NC2=C(C(=O)CCC2)C1c1ccc(C)o1` (stereo not drawn) as the compound, how does the Potency read?
Answer: Its Potency is “inactive”.

Question: For `CC1(C)CC(=O)C(CC(=O)N2CCC(Cc3ccccc3)CC2)C(=O)C1`, which Potency is on record?
Answer: The Potency was “inactive”.

Question: With `COc1cc(NC(=O)c2cncc(-c3ccc(C#N)cc3)c2)cc(C(=O)Nc2cccc(C(F)(F)F)c2)c1` as the compound, how does the Potency read?
Answer: Its Potency is active: 6.57 µM.

Question: Which Potency does the source give for `O=[N+]([O-])c1cccc(S(=O)(=O)N2CCN(c3ccccn3)CC2)c1` here?
Answer: The Potency was active: 10.4 µM.

Question: With `O=C(CCN1C(=O)/C(=C/c2ccccc2Cl)SC1=S)NC1=NCCS1` as the compound, how does the Potency read?
Answer: Its Potency is inconclusive: 20.8 µM [inhibitor, single point].

Question: For `Nc1nc(COC(=O)C2CC(=O)N(CCc3ccccc3)C2)nc(Nc2ccccc2)n1` (stereo not drawn), which Potency is on record?
Answer: Its Potency is inconclusive: 14.7 µM [inhibitor, single point].

Question: For `COC(=O)[C@H](C)NC(=O)NCc1ccccc1F`, which Potency is on record?
Answer: Its Potency is “inactive”.

Question: For `CCN(/N=C/c1ccc(N(C)C)cc1)c1nc2ccccc2[nH]1`, which Potency is on record?
Answer: The Potency was inconclusive: 18.5 µM [inhibitor, single point].

Question: With `Cc1cc(OCC(=O)OCC(=O)NC2CCCCC2C)ccc1Cl` (stereo not drawn) as the compound, how does the Potency read?
Answer: The Potency was “inactive”.

Question: For `Cc1ccc(C(=O)C[n+]2cc(Br)cc(Br)c2)cc1[N+](=O)[O-]`, which Potency is on record?
Answer: Its Potency is inconclusive: 2.08 µM [inhibitor, partial curve, poor fit].

Question: Which Potency does the source give for `CCCn1c(N)c(C(=O)CN(C)CC(=O)Nc2c(C)cc(C)cc2C)c(=O)[nH]c1=O` here?
Answer: The Potency was “inactive”.

Question: With `O=C(NC1CCCCCC1)C(=S)N1CCOCC1` as the compound, how does the Potency read?
Answer: Its Potency is inconclusive: 18.5 µM [inhibitor, single point].

Question: For `COc1ccc(NC(=O)COc2ccccc2Cc2ccccc2)cc1S(=O)(=O)N1CCOCC1`, which Potency is on record?
Answer: The Potency was active: 5.22 µM.

Question: With `CCOC(=O)c1cc(-c2ccccc2)n(CC(=O)N2CCCC2)c1C` as the compound, how does the Potency read?
Answer: The Potency was inconclusive: 4.15 µM [inhibitor, single point].

Question: Which Potency does the source give for `COc1ccc(NC(=O)COc2nc3ccccc3nc2N2CCOCC2)c(OC)c1` here?
Answer: Its Potency is “inactive”.

Question: With `CC1(C(=O)O)CCC(C(=O)Nc2ccccc2O)C1(C)C` (stereo not drawn) as the compound, how does the Potency read?
Answer: The Potency was active: 11.7 µM.

Question: With `Cc1ccc(S(=O)(=O)N(CC(=O)N2CCCCCC2)c2ccccc2F)cc1` as the compound, how does the Potency read?
Answer: The Potency was inconclusive: 5.22 µM [inhibitor, partial curve, poor fit].

Question: With `COc1ccc(NS(=O)(=O)c2ccc(N3CCCC3)c(N)c2)cc1` as the compound, how does the Potency read?
Answer: Its Potency is “inactive”.

Question: With `COc1ccc(Cc2nnc(NC(=O)CSc3ccccc3)s2)cc1OC` as the compound, how does the Potency read?
Answer: The Potency was inconclusive: 5.86 µM [inhibitor, partial curve].

Question: For `CCn1cc(C(=O)NCC(OC)OC)c(=O)c2cc(S(=O)(=O)N3CCC(C)CC3)ccc21`, which Potency is on record?
Answer: Its Potency is inconclusive: 13.1 µM [inhibitor, single point].

Question: For `O=C1CCc2cc(S(=O)(=O)NC3CCCCC3)cc3c2N1CC3`, which Potency is on record?
Answer: Its Potency is “inactive”.

Question: For `COc1ccccc1N1CCN(S(=O)(=O)c2cccc(F)c2)CC1`, which Potency is on record?
Answer: Its Potency is “inactive”.

Question: For `O=[N+]([O-])c1cccc2c([N+](=O)[O-])cccc12`, which Potency is on record?
Answer: The Potency was active: 5.86 µM.

Question: For `O=C(CN1CCN(CCN2C(=O)c3cccc4cccc(c34)C2=O)CC1)c1ccc(F)cc1`, which Potency is on record?
Answer: Its Potency is active: 1.04 µM.
